In the supplement of paper PMC10849652:
The other results are listed elsewhere or left out.

Chains of the proteins cited; added tags and fusions are not shown. Lines headed by an entry give the natural chain unless they say otherwise; changes in a name come on top.
UniProt P17482: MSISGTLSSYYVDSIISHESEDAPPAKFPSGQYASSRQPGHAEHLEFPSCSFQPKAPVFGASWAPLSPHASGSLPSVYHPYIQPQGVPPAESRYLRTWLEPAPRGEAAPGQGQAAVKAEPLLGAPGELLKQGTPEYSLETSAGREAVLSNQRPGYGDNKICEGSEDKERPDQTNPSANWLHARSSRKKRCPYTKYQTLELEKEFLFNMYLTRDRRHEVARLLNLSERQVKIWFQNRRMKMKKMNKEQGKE
UniProt O75146: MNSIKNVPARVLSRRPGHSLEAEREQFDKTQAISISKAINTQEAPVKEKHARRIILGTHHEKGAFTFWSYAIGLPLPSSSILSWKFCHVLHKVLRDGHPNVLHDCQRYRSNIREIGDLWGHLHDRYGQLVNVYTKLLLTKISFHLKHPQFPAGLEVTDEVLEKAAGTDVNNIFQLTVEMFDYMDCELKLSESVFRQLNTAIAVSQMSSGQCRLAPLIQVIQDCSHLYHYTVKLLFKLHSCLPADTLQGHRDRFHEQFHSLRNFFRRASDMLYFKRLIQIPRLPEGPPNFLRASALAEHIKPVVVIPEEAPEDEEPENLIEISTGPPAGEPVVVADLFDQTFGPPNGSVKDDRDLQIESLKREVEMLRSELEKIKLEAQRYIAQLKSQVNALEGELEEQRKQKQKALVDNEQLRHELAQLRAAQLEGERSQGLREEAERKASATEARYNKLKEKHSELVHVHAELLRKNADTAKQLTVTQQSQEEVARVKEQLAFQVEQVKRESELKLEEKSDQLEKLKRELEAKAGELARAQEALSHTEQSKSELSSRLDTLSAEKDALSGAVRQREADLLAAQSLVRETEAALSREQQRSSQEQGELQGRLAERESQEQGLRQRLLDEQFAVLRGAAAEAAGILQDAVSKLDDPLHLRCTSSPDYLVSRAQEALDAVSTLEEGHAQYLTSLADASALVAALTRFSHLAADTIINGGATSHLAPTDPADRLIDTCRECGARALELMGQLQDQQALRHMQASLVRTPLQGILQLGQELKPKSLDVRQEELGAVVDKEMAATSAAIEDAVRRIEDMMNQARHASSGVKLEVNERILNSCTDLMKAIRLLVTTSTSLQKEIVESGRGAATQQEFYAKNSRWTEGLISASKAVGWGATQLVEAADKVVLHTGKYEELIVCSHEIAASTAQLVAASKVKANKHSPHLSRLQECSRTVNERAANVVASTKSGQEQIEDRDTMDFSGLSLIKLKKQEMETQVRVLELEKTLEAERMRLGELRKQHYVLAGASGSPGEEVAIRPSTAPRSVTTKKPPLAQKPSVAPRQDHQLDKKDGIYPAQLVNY
UniProt Q01581: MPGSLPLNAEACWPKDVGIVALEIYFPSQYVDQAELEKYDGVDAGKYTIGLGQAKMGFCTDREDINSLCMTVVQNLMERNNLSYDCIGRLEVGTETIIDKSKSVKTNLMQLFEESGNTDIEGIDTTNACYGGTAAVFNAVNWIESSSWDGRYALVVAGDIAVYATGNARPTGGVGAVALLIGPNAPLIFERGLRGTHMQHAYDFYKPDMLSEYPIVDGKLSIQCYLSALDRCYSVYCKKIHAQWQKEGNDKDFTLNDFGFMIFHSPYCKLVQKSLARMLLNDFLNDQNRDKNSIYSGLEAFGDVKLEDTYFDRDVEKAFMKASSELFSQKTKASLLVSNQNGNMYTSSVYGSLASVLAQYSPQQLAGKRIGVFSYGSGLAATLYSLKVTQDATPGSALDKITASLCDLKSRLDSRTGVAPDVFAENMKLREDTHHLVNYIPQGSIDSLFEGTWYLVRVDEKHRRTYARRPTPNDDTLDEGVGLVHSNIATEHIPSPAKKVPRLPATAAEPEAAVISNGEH
UniProt O15347: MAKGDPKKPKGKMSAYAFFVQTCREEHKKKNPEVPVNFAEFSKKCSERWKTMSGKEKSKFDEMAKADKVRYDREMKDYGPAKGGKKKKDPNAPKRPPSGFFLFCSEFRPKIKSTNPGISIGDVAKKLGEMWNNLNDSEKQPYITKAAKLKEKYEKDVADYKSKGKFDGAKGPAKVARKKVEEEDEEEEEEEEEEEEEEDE
UniProt Q96FZ2: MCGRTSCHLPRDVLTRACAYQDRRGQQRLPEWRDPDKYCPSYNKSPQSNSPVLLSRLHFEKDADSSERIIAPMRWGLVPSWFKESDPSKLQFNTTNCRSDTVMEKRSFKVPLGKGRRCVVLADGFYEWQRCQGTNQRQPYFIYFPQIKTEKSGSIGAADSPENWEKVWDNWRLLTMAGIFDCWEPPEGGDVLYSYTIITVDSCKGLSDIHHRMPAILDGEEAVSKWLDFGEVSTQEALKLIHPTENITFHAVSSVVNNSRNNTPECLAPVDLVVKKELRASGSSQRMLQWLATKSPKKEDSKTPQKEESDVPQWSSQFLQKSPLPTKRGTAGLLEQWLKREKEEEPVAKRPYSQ
UniProt Q9BUP3: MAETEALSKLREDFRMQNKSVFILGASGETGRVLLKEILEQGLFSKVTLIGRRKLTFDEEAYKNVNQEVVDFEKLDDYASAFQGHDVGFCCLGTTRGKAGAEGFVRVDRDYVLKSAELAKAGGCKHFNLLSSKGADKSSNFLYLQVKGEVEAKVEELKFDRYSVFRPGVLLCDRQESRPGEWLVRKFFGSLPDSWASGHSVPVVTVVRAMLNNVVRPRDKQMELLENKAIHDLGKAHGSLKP
UniProt Q92506: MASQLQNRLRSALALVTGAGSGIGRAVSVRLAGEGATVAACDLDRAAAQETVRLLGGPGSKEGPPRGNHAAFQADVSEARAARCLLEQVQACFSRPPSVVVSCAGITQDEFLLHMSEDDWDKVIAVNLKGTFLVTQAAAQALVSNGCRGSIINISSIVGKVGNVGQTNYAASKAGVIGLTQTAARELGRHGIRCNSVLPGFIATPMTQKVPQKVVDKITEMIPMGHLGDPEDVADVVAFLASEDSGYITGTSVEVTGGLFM
UniProt Q6DN03, whole entry, looked up: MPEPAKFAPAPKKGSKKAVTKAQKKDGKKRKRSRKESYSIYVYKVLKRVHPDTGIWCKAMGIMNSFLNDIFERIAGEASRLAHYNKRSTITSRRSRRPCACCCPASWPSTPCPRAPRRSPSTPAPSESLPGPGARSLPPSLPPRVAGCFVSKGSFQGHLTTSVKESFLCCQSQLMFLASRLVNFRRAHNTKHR
UniProt P23327: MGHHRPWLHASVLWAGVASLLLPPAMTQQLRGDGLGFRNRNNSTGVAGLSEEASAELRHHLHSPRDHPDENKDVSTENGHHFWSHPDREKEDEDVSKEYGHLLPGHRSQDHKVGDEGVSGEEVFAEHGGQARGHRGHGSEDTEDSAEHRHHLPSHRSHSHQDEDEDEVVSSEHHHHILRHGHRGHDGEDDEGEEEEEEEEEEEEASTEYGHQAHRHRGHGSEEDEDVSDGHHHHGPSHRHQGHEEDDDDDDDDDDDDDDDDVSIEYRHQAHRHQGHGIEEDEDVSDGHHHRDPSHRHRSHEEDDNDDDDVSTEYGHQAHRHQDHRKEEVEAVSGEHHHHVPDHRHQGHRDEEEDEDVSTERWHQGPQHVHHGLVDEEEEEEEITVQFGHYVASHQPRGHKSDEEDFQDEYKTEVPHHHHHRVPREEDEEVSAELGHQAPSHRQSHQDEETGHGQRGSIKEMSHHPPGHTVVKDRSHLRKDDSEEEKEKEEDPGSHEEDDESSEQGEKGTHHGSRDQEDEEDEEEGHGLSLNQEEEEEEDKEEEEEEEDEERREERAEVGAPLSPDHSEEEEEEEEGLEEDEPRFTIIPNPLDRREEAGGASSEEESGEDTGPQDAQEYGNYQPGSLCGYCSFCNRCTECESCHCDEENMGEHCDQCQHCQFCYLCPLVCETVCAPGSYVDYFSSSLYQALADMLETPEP
UniProt Q14527: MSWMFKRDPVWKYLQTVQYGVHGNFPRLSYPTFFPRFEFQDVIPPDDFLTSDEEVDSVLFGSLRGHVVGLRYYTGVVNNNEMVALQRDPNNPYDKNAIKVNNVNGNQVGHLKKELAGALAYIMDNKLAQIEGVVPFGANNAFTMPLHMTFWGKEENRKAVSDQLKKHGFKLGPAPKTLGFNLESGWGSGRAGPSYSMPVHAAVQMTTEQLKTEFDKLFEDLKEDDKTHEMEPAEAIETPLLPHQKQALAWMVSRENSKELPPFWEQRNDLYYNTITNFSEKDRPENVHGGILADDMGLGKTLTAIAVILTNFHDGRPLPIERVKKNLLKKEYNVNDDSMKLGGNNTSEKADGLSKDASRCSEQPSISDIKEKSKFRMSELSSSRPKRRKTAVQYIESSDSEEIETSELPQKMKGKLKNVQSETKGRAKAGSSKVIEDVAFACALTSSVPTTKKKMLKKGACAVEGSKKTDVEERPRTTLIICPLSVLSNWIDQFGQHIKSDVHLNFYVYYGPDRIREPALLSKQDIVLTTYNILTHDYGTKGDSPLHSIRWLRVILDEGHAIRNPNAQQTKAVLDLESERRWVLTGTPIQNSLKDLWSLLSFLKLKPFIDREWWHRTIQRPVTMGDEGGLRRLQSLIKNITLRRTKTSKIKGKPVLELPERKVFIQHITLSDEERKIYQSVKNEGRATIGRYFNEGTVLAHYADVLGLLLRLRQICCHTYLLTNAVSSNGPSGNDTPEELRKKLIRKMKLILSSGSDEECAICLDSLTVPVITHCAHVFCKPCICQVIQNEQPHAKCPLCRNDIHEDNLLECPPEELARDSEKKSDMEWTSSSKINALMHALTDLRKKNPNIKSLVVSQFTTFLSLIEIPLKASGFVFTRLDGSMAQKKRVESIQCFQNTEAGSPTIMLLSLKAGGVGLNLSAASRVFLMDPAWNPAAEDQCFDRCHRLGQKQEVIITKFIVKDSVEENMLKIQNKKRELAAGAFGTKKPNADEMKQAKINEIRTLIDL
UniProt P82970: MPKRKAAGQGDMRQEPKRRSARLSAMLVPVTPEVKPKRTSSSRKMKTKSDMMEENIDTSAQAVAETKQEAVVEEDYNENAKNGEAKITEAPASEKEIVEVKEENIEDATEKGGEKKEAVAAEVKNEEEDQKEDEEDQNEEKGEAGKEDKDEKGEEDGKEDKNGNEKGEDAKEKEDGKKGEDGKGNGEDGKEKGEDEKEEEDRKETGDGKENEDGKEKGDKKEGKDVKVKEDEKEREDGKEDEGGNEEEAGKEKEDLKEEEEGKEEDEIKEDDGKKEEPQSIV
UniProt Q1KMD3: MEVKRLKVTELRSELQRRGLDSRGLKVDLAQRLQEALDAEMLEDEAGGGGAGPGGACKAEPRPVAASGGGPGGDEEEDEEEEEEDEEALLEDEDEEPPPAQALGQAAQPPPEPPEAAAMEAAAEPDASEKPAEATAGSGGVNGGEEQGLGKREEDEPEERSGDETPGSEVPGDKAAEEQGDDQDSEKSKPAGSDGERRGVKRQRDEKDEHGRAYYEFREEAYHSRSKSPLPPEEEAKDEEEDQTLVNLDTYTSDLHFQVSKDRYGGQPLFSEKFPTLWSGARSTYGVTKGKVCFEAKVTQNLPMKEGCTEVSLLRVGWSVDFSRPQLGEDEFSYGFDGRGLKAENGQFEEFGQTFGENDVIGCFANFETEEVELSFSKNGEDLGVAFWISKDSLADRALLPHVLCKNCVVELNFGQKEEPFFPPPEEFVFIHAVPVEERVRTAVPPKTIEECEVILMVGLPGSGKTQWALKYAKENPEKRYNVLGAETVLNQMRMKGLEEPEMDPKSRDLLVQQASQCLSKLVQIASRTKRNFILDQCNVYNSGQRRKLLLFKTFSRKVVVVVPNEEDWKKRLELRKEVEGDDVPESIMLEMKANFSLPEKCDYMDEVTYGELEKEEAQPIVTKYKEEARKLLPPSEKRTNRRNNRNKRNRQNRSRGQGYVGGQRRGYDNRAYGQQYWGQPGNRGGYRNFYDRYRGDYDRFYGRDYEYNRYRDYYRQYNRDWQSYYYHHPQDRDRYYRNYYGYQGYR
UniProt Q96JB3: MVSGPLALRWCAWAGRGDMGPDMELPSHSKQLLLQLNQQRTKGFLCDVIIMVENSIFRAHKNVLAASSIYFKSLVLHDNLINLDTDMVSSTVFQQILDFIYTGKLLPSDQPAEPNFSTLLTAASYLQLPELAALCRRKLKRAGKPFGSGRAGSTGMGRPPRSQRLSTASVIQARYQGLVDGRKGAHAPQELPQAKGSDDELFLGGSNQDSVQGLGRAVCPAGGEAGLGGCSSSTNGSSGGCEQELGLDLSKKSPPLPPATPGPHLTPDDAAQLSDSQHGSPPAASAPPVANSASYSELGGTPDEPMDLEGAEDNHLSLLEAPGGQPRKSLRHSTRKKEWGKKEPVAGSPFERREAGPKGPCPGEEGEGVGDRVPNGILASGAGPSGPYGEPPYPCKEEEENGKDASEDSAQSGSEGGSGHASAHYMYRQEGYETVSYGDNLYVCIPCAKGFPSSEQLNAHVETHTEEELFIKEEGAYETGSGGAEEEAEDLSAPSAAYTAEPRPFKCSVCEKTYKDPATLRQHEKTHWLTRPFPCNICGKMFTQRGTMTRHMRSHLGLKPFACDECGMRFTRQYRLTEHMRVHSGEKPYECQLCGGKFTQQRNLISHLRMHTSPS

Legend:
Assay in all cases: log2 fold change, soluble protein after heating vs DMSO (PISA); higher = thermal stabilisation; K562 cells, 10 uM, 30 min; active = over 0.2 and 3.5 SD of the protein, either way, in both replicates (recomputed)
[1] = compound: CC[C@@H]1C(=O)N(C)c2cnc(Nc3ccc(C(=O)NC4CCN(C)CC4)cc3OC)nc2N1C1CCCC1
In short: (§1)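 Values are thermal stability changes relative to control samples and are taken from duplicates. They are stated as log2 fold changes. Before quantification by TMTpro 16plex LC-MS/MS with equalised channel sums, K562 cells at 2×10^6 cells/mL were treated with 10 μM compound for 30 min, heated in aliquots for 3 min across 48°C-58°C, pooled, extracted in PBS with 0.5% NP-40 at 4°C, and centrifuged at 21,000xg for 90 min to give the soluble supernatant.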

volasertib = compound: CC[C@@H]1C(=O)N(C)c2cnc(Nc3ccc(C(=O)N[C@H]4CC[C@H](N5CCN(CC6CC6)CC5)CC4)cc3OC)nc2N1C(C)C [volasertib]
In short: as §1

[2] = compound: CC[C@H](C)N1C=C(C2=C(C=C(C=C21)C3=CN=C(C=C3)N4CCNCC4)C(=O)NCC5=C(C=C(NC5=O)C)C)C
In short: as §1

epoxomicin = compound: CC[C@H](C)[C@@H](C(=O)N[C@@H]([C@@H](C)O)C(=O)N[C@@H](CC(C)C)C(=O)[C@]1(CO1)C)NC(=O)[C@H]([C@@H](C)CC)N(C)C(=O)C [epoxomicin]
In short: as §1

[3] = compound: CCn1c(C(=O)N(C2CC2)C2CC2)cc2c3c(ncn3C)c(Nc3cc(C)n(C)n3)nc21
In short: as §1

[4] = compound: CN(C)CC(=O)Nc1ccc2[nH]c(=O)c3ccccc3c2c1
In short: as §1

rosiglitazone = compound: CN(CCOC1=CC=C(C=C1)C[C@H]2C(=O)NC(=O)S2)C3=CC=CC=N3 (racemic) [rosiglitazone]
In short: as §1

[5] = compound: CN1C2=C(C3=C1C(=O)N(N=C3)CC4=CC(=CC=C4)N)SC(=C2)S(=O)C
In short: as §1

saracatinib = compound: CN1CCN(CCOc2cc(OC3CCOCC3)c3c(Nc4c(Cl)ccc5c4OCO5)ncnc3c2)CC1 [saracatinib]
In short: as §1

sotrastaurin = compound: CN1CCN(c2nc(C3=C(c4c[nH]c5ccccc45)C(=O)NC3=O)c3ccccc3n2)CC1 [sotrastaurin]
In short: as §1

alvocidib = compound: CN1CC[C@H](c2c(O)cc(O)c3c(=O)cc(-c4ccccc4Cl)oc23)[C@H](O)C1 [alvocidib]
In short: as §1

Tubastatin A = compound: CN1CCc2c(c3ccccc3n2Cc2ccc(C(=O)NO)cc2)C1 [Tubastatin A]
In short: as §1

[6] = compound: CNC(=O)C1=CC=CC=C1NC2=NC(=NC=C2Cl)NC3=C(C=C(C=C3)N4CCOCC4)OC
In short: as §1

defactinib = compound: CNC(=O)c1ccc(Nc2ncc(C(F)(F)F)c(NCc3nccnc3N(C)S(C)(=O)=O)n2)cc1 [defactinib]
In short: as §1

rucaparib = compound: CNCc1ccc(-c2[nH]c3cc(F)cc4c3c2CCNC4=O)cc1 [rucaparib]
In short: as §1

[7] = compound: CNc1nc(-c2ccc3c(N)n[nH]c3c2)cc(N2C[C@@H](C(=O)NC3CCCCC3)CC[C@H]2C)n1
In short: as §1

encorafenib = compound: COC(=O)N[C@@H](C)CNc1nccc(-c2cn(C(C)C)nc2-c2cc(Cl)cc(NS(C)(=O)=O)c2F)n1 [encorafenib]
In short: as §1

[8] = compound: COC(=O)[C@H](CCSC)NC(=O)C1=C(C=C(C=C1)NC[C@H](CS)N)C2=CC=CC=C2
In short: as §1

[9] = compound: CCn1cc(-c2ccnc3[nH]c(-c4cccc(CN(C)C)c4)cc23)c(-c2ccc(NC(=O)N(C)C)cc2)n1
In short: as §1

[10] = compound: CN1CCC(CNc2ccc3ncc(-c4cccc(OC(F)(F)F)c4)n3n2)CC1
In short: as §1

Measured: log2 fold change

HOXB9 (UniProt P17482)
inactive: [1] -0.197 | volasertib -0.231 | [2] -0.002 | epoxomicin 0.087 | [3] -0.124 | [4] 0.019 | rosiglitazone 0.163 | [5] -0.033 | saracatinib -0.022 | sotrastaurin -0.071 | alvocidib -0.027 | Tubastatin A 0.148 | [6] 0.064 | defactinib -0.066 | rucaparib -0.116 | [7] 0.114 | encorafenib 0.129 | [8] 0.02

HPCAL1 (UniProt P37235)
inactive: [1] -0.076 | volasertib -0.065 | [2] -0.028 | epoxomicin 0.048 | [9] 0.039 | [4] 0.019 | [5] -0.029 | [10] -0.032 | saracatinib 0.011 | sotrastaurin 0.017 | Tubastatin A -0.085 | [6] 0.048 | defactinib -0.008 | rucaparib 0.013 | [7] -0.107 | encorafenib -0.014 | [8] -0.025

HIP1R (UniProt O75146)
active: volasertib -0.268
inactive: [1] -0.035 | [2] 0.015 | epoxomicin 0.051 | [9] -0.016 | [4] -0.017 | [5] 0.026 | [10] -0.134 | saracatinib 0.051 | sotrastaurin -0.045 | Tubastatin A 0.007 | [6] 0.037 | defactinib -0.063 | rucaparib 0.018 | [7] 0.015 | encorafenib -0.019 | [8] 0.016

HM13 (UniProt Q8TCT9)
inactive: [1] 0.064 | volasertib 0.047 | [2] -0.004 | epoxomicin 0.012 | [9] -0.008 | [4] -0.009 | rosiglitazone 0.009 | [10] -0.003 | sotrastaurin 0.008 | alvocidib -0.016 | Tubastatin A -0.012 | defactinib 0.004 | rucaparib -0.024 | encorafenib -0.026 | [8] 0.009

HMGCS1 (UniProt Q01581)
inactive: [1] 0.022 | volasertib -0.007 | [2] 0.003 | epoxomicin 0.039 | [3] 0.008 | [9] -0.025 | [4] -0.022 | rosiglitazone -0.009 | [5] -0.043 | [10] -0.165 | saracatinib -0.016 | sotrastaurin 0.011 | alvocidib -0.017 | Tubastatin A -0.035 | [6] -0.052 | defactinib 0.002 | rucaparib 0.022 | [7] -0.061 | encorafenib -0.034 | [8] 0.033

HMGB3 (UniProt O15347)
inactive: [1] -0.182 | volasertib 0.064 | [2] 0.053 | epoxomicin -0.007 | [9] -0.021 | [4] -0.022 | [5] -0.039 | [10] 0.015 | saracatinib 0.05 | sotrastaurin 0.031 | Tubastatin A 0 | [6] -0.076 | defactinib 0.089 | rucaparib 0.008 | [7] -0.073 | encorafenib -0.063 | [8] 0.021

HMCES (UniProt Q96FZ2)
inactive: [1] -0.096 | volasertib 0.009 | [2] 0.032 | epoxomicin 0.213 | [3] -0.1 | rosiglitazone 0.157 | [5] -0.107 | saracatinib 0.125 | sotrastaurin -0.028 | Tubastatin A -0.007 | [6] 0.04 | rucaparib -0.146 | [7] 0.069 | encorafenib 0.12

HTATIP2 isoform 3 (UniProt Q9BUP3)
inactive: [1] -0.029 | volasertib -0.168 | [2] 0.035 | epoxomicin 0.008 | [9] -0.013 | [4] 0.009 | [5] -0.016 | [10] -0.148 | saracatinib -0.016 | sotrastaurin 0.023 | Tubastatin A -0.009 | [6] -0.001 | defactinib -0.065 | rucaparib 0.023 | [7] 0.022 | encorafenib 0.01 | [8] -0.016

HSD17B8 (UniProt Q92506)
inactive: [1] 0.039 | volasertib -0.005 | [2] -0.071 | epoxomicin -0.046 | [3] 0.026 | [9] 0.069 | [4] 0.16 | rosiglitazone 0.016 | [5] -0.037 | [10] 0.102 | saracatinib 0.076 | sotrastaurin 0.023 | alvocidib -0.021 | Tubastatin A -0.01 | [6] -0.009 | defactinib -0.043 | rucaparib -0.045 | [7] -0.059 | encorafenib -0.009 | [8] -0.041

Copied from above (two entries):
HMCES (UniProt Q96FZ2)
inactive: [1] -0.096 | volasertib 0.009 | [2] 0.032 | epoxomicin 0.213 | [3] -0.1 | rosiglitazone 0.157 | [5] -0.107 | saracatinib 0.125 | sotrastaurin -0.028 | Tubastatin A -0.007 | [6] 0.04 | rucaparib -0.146 | [7] 0.069 | encorafenib 0.12

HTATIP2 isoform 3 (UniProt Q9BUP3)
inactive: [1] -0.029 | volasertib -0.168 | [2] 0.035 | epoxomicin 0.008 | [9] -0.013 | [4] 0.009 | [5] -0.016 | [10] -0.148 | saracatinib -0.016 | sotrastaurin 0.023 | Tubastatin A -0.009 | [6] -0.001 | defactinib -0.065 | rucaparib 0.023 | [7] 0.022 | encorafenib 0.01 | [8] -0.016

Remaining list, next part.

HRAS (UniProt P01112)
inactive: [1] -0.014 | volasertib 0.057 | [2] -0.028 | epoxomicin 0.104 | [9] -0.082 | [4] -0.125 | [5] -0.033 | [10] 0.048 | saracatinib 0.002 | sotrastaurin 0.091 | Tubastatin A 0.014 | [6] -0.015 | defactinib -0.012 | rucaparib 0.072 | [7] 0.077 | encorafenib -0.042 | [8] 0.062

HIST2H2BC (UniProt Q6DN03)
inactive: [1] 0.023 | volasertib 0.145 | [2] -0.1 | epoxomicin -0.221 | [3] 0.058 | [9] 0.395 | [4] -0.184 | rosiglitazone -0.249 | [5] 0.488 | [10] 0.196 | saracatinib -0.123 | sotrastaurin 0.179 | Tubastatin A 0.16 | [6] -0.101 | defactinib 0.535 | rucaparib 0.464 | [7] 0.01 | encorafenib 0.104 | [8] 0.074

HRC (UniProt P23327)
inactive: [1] 0.01 | volasertib 0.043 | [2] -0.014 | epoxomicin -0.061 | [9] -0.023 | [4] 0.005 | [5] -0.107 | [10] -0.013 | saracatinib 0.063 | sotrastaurin 0.057 | Tubastatin A -0.125 | [6] 0.009 | defactinib -0.011 | rucaparib 0.01 | [7] -0.057 | encorafenib -0.066 | [8] 0.043

HLTF (UniProt Q14527)
inactive: [1] -0.063 | volasertib -0.178 | [2] 0.017 | epoxomicin 0.158 | [9] -0.113 | [4] 0.056 | [5] -0.009 | [10] 0.201 | saracatinib -0.012 | sotrastaurin 0.019 | Tubastatin A 0.081 | [6] -0.03 | defactinib -0.122 | rucaparib -0.033 | [7] -0.074 | encorafenib -0.195 | [8] -0.027

HMGN4 (UniProt O00479)
inactive: [1] -0.062 | volasertib 0.16 | [2] 0.392 | epoxomicin 0.583 | [3] 0.023 | [9] -0.293 | [4] -0.028 | rosiglitazone -0.392 | [5] 0.505 | [10] 0.268 | saracatinib -0.832 | sotrastaurin -0.257 | alvocidib -0.074 | Tubastatin A -0.063 | [6] -0.001 | defactinib 0.007 | rucaparib 0.294 | [7] -0.132 | encorafenib -0.114 | [8] -0.066

HMGN5 (UniProt P82970)
inactive: [1] 0.018 | volasertib 0.042 | [2] -0.03 | epoxomicin 0.019 | [3] 0.026 | [9] 0.022 | [4] 0.032 | rosiglitazone -0.02 | [5] 0.003 | [10] 0.106 | saracatinib -0.01 | sotrastaurin 0.012 | alvocidib 0.039 | Tubastatin A -0.011 | [6] 0.02 | defactinib 0.028 | rucaparib -0.063 | [7] -0.04 | encorafenib 0.033 | [8] -0.002

HNRNPUL2 (UniProt Q1KMD3)
inactive: [1] 0.172 | volasertib 0.135 | [2] -0.023 | epoxomicin -0.084 | [9] 0.092 | [4] -0.012 | [5] 0.131 | [10] -0.013 | saracatinib -0.023 | sotrastaurin 0.039 | Tubastatin A 0.065 | [6] -0.06 | rucaparib 0.125 | [7] -0.017 | encorafenib 0.007 | [8] 0.006
active: defactinib 0.259

HIC2 (UniProt Q96JB3)
inactive: [1] 0.028 | volasertib -0.19 | [2] 0.032 | epoxomicin -0.134 | [9] 0.128 | [4] -0.035 | [5] 0.164 | [10] -0.006 | saracatinib -0.152 | sotrastaurin -0.236 | Tubastatin A -0.034 | [6] -0.011 | defactinib -0.008 | rucaparib 0.142 | [7] -0.019 | encorafenib 0.045 | [8] 0.089

HP1BP3 (UniProt Q5SSJ5)
inactive: [1] 0.122 | volasertib 0.054 | [2] -0.11 | epoxomicin -0.016 | [9] 0.013 | [4] 0.046 | [5] 0.126 | [10] 0.038 | saracatinib -0.045 | sotrastaurin -0.071 | Tubastatin A 0.06 | [6] -0.045 | defactinib 0.227 | rucaparib -0.041 | [7] -0.001 | encorafenib 0.075 | [8] -0.098
